This assay concerns the target T1, SpoIIIAG (Bacillus subtilis (endogenous in sporulating B. subtilis cells)) (UniProt P49784).
T1 sequence: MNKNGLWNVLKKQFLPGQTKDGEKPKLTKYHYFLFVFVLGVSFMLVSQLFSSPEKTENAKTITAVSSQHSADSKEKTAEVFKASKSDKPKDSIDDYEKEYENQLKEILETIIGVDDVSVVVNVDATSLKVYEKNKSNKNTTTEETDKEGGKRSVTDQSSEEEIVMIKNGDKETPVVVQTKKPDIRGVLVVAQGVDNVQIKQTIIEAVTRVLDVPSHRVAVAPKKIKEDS
As to the kind of experiment: affinity purification with mass spectrometry; immunoprecipitate on anti-SpoIIIAG antibody resin from DDM-solubilized membranes, trypsinized, LC-MS (LCQ DECA ion trap).

No constants are given. Whether binding was seen depends on the method and setting. Binding seen in cells or lysates may run through a third protein. A yes stands for co-enrichment or nearness to the bait. Other partners may have been found.

B1: SpoIIIAB (protein, UniProt Q01368 1-171)
chain: MLKLLGAVFIVVATTWTGFEMAKIYTERPRQIRQLRAALQSLEAEIMYGHTPLHTASQQIAKQLAQPVSTLFSAFSDQLDKGSDSAKTAWEQSLKKVWDTLSLKKSEYEVLKQFGETLGIHDRISQQKHIKLALTHLEASEADAEQAQAKNEKMIKSLGFLAGLLLILLLM
For B1, the binding entry is listed as “binds”.

For the origin of these results see paper PMC2703783.
